Reference: PubChem BioAssay AID192 (DTP/NCI, 2004)
The list shows only some results of the screen, not a fair sample: it is rich in T/C values a quarter to a half above the control, in often repeated tests (any T/C) and in doses without a T/C. Further doses and runs are listed elsewhere. T/C is the treated group as % of the vehicle group. Some entries give survivors of the animals treated and no T/C: the source holds a T/C of zero for them, seemingly a mark for toxic or unscored doses. Some doses without a T/C left all or most animals alive at the check, yet need not have been tolerated: the source hardly ever lists a survival T/C far under the control, and the zero likely stands for such cases as well. Counts of survivors are from the toxicity check (mostly the fifth day) where no day follows; animals may have died later. Schedule codes are those of the source, taken here to give the interval after Q, in days (D) or hours (H), and the number of doses after X. Some entries were tested several times; their values stand side by side, smallest first. Marks such as (2×) say how often a value occurs here. For survival time, the PubChem record calls one and a half times the control and up active, and a quarter to a half above the control has no call in these data; cut-offs in other NCI protocols can differ. Some T/C values carry the count of animals alive at the toxicity check (mostly the fifth day); where none is given, no animal had died by that day.

System: BDF1 mice, B16 melanoma ip, median survival T/C
Test: NCI In Vivo Anticancer Drug Screen. Data for tumor model B16 Melanoma (intraperitoneal) in B6D2F1 (BDF1) mice
Details: T/C endpoint: median survival time, higher T/C = longer survival
Outline: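 Values are ratios of treated (T) to vehicle-control (C) measurements of survival or tumor size in tumor-bearing mice.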

[1] = dose: 6.0 mg/kg/injection, schedule: Q01DX009 (ip), vehicle: Klucel (hydroxypropylcellulose) (HPC)
[2] = dose: 16.0 mg/kg/injection, schedule: Q01DX009 (ip), vehicle: saline
[3] = dose: 25.0 mg/kg/injection, schedule: Q01DX009 (ip), vehicle: Klucel (hydroxypropylcellulose) (HPC)
[4] = dose: 400.0 mg/kg/injection, schedule: Q01DX009 (ip), vehicle: Klucel (hydroxypropylcellulose) (HPC)
[5] = dose: 400.0 mg/kg/injection, schedule: Q01DX009 (ip), vehicle: saline with Tween-80

N[C@@H](Cc1ccc(N(CCCl)CCCl)cc1)C(=O)O
T/C (dose: 0.25 mg/kg/injection, schedule: Q01DX009 (ip), vehicle: Klucel (hydroxypropylcellulose) (HPC)): 129 and 130 % of control | T/C (dose: 0.25 mg/kg/injection, schedule: Q01DX009 (ip), vehicle: saline): 133 % of control | T/C (dose: 0.5 mg/kg/injection, schedule: Q01DX009 (ip), vehicle: Klucel (hydroxypropylcellulose) (HPC)): 127, 143, 162, 181 % of control | T/C (dose: 0.5 mg/kg/injection, schedule: Q01DX009 (ip), vehicle: saline with Tween-80): 146 % of control | T/C (dose: 0.5 mg/kg/injection, schedule: Q01DX009 (ip), vehicle: saline, evaluated on day 45): 145 % of control | T/C (dose: 0.5 mg/kg/injection, schedule: Q01DX009 (ip), vehicle: saline, evaluated on day 60): 114, 132, 133 [9 of 10 alive], 140, 141, 150, 166, 179, 181, 237 % of control | T/C (dose: 0.7 mg/kg/injection, schedule: Q01DX009 (ip), vehicle: saline): 145 % of control | T/C (dose: 1.0 mg/kg/injection, schedule: Q01DX009 (ip), vehicle: Klucel (hydroxypropylcellulose) (HPC)): 141, 167, 187, 210 % of control | T/C (dose: 1.0 mg/kg/injection, schedule: Q01DX009 (ip), vehicle: saline, evaluated on day 45): 175 % of control | T/C (dose: 1.0 mg/kg/injection, schedule: Q01DX009 (ip), vehicle: saline, evaluated on day 60): 130 [5 of 6 alive], 162, 163 [9 of 10 alive], 166, 167, 173, 179, 203, 205, 221, 274 % of control | T/C (dose: 1.5 mg/kg/injection, schedule: Q04DX003 (ip), vehicle: Klucel (hydroxypropylcellulose) (HPC)): 148 % of control | T/C (dose: 2.0 mg/kg/injection, schedule: Q01DX009 (ip), vehicle: Klucel (hydroxypropylcellulose) (HPC)): 170 [7 of 8 alive], 198, 272, 279 % of control | T/C (dose: 2.0 mg/kg/injection, schedule: Q01DX009 (ip), vehicle: saline, evaluated on day 10): 189 % of control | T/C (dose: 2.0 mg/kg/injection, schedule: Q01DX009 (ip), vehicle: saline, evaluated on day 45): 203 % of control | T/C (dose: 2.0 mg/kg/injection, schedule: Q01DX009 (ip), vehicle: saline, evaluated on day 60): 175, 177, 192, 193, 206, 220, 241, 243, 257 % of control | survivor count (dose: 2.0 mg/kg/injection, schedule: Q01DX009 (ip), vehicle: saline): 10 of 10 and 6 of 6 | T/C (dose: 2.0 mg/kg/injection, schedule: Q04DX003 (ip), vehicle: saline): 149 % of control | T/C (dose: 2.2 mg/kg/injection, schedule: Q01DX005 (ip), vehicle: saline): 129 % of control | T/C (dose: 2.5 mg/kg/injection, schedule: Q01DX001 (ip), vehicle: water): 127 % of control | T/C (dose: 3.0 mg/kg/injection, schedule: Q04DX003 (ip), vehicle: Klucel (hydroxypropylcellulose) (HPC)): 148 % of control | T/C (dose: 3.6 mg/kg/injection, schedule: Q01DX005 (ip), vehicle: saline): 134 % of control | T/C (dose: 4.0 mg/kg/injection, schedule: Q01DX009 (ip), vehicle: Klucel (hydroxypropylcellulose) (HPC)): 108, 137, 220, 236 % of control | T/C (dose: 4.0 mg/kg/injection, schedule: Q01DX009 (ip), vehicle: saline, evaluated on day 45): 122 % of control | T/C (dose: 4.0 mg/kg/injection, schedule: Q01DX009 (ip), vehicle: saline, evaluated on day 60): 114, 115, 149 [9 of 10 alive], 182, 205 [9 of 10 alive], 250, 254, 278 % of control | survivor count (dose: 4.0 mg/kg/injection, schedule: Q01DX009 (ip), vehicle: saline): 10 of 10 and 6 of 6 | T/C (dose: 5.0 mg/kg/injection, schedule: Q01DX001 (ip), vehicle: water): 148 % of control | T/C [1]: 125 % of control | survivor count (dose: 6.0 mg/kg/injection, schedule: Q01DX009 (ip), vehicle: saline): 6 of 6 | survivor count (dose: 8.0 mg/kg/injection, schedule: Q01DX009 (ip), vehicle: Klucel (hydroxypropylcellulose) (HPC)): 10 of 10 and 8 of 8 | survivor count (dose: 8.0 mg/kg/injection, schedule: Q01DX009 (ip), vehicle: saline with Tween-80): 10 of 10 | survivor count (dose: 8.0 mg/kg/injection, schedule: Q01DX009 (ip), vehicle: saline): 1 of 10, 3 of 6, 9 of 10, 10 of 10 (2×) | survivor count (dose: 9.0 mg/kg/injection, schedule: Q01DX009 (ip), vehicle: carboxymethylcellulose (CMC)): 10 of 10 | survivor count (dose: 12.0 mg/kg/injection, schedule: Q01DX009 (ip), vehicle: carboxymethylcellulose (CMC)): 10 of 10 and 6 of 6 | survivor count (dose: 12.0 mg/kg/injection, schedule: Q01DX009 (ip), vehicle: saline): 10 of 10 | survivor count [2]: 9 of 10 and 10 of 10 | survivor count (dose: 20.0 mg/kg/injection, schedule: Q01DX001 (ip), vehicle: Klucel (hydroxypropylcellulose) (HPC)): 10 of 10 | survivor count (dose: 20.0 mg/kg/injection, schedule: Q01DX001 (ip), vehicle: water): 10 of 10 | survivor count (dose: 24.0 mg/kg/injection, schedule: Q01DX009 (ip), vehicle: carboxymethylcellulose (CMC)): 5 of 6 | survivor count (dose: 30.0 mg/kg/injection, schedule: Q01DX001 (ip), vehicle: water): 0 of 10

C[Si]1(C)CCCSC1
survivor count (dose: 100.0 mg/kg/injection, schedule: Q01DX009 (ip), vehicle: saline with Tween-80): 10 of 10

Fc1ccc(/C=C2/c3cc(Cl)ccc3-c3c(Cl)cc(Cl)cc32)cc1
survivor count (dose: 50.0 mg/kg/injection, schedule: Q01DX009 (ip), vehicle: saline with Tween-80): 6 of 6

CN(C)CCSc1cc(O)c2c(c1O)C(=O)c1ccccc1C2=O
survivor count (dose: 200.0 mg/kg/injection, schedule: Q01DX009 (ip), vehicle: water): 10 of 10 | survivor count (dose: 400.0 mg/kg/injection, schedule: Q01DX009 (ip), vehicle: water): 7 of 10

CCCCNC(=O)OCC(C)(CCC)COC(N)=O (centres undefined)
survivor count [3]: 10 of 10 | survivor count [4]: 10 of 10

O=C1c2ccccc2C(=O)C(Cl)C1Cl (centres undefined)
survivor count (dose: 0.78 mg/kg/injection, schedule: Q01DX009 (ip), vehicle: saline with Tween-80): 10 of 10 | survivor count (dose: 1.56 mg/kg/injection, schedule: Q01DX009 (ip), vehicle: saline with Tween-80): 10 of 10 | survivor count (dose: 3.13 mg/kg/injection, schedule: Q01DX009 (ip), vehicle: saline with Tween-80): 10 of 10 | survivor count (dose: 6.25 mg/kg/injection, schedule: Q01DX009 (ip), vehicle: saline with Tween-80): 10 of 10 | survivor count (dose: 7.2 mg/kg/injection, schedule: Q01DX009 (ip), vehicle: saline): 9 of 10 | survivor count (dose: 11.0 mg/kg/injection, schedule: Q01DX009 (ip), vehicle: saline): 0 of 10 | survivor count (dose: 12.5 mg/kg/injection, schedule: Q01DX009 (ip), vehicle: saline with Tween-80): 4 of 10 | survivor count [2]: 0 of 10

O=C(NC(Cc1ccccc1)C(=O)O)c1ccccc1 (centres undefined)
survivor count (dose: 200.0 mg/kg/injection, schedule: Q01DX009 (ip), vehicle: saline with Tween-80): 10 of 10 | survivor count [5]: 9 of 10

CCCCCCCCCC(=O)CCCCCC
survivor count [4]: 10 of 10

C[N+](C)(C)c1ncnc2nc[nH]c12
survivor count (dose: 400.0 mg/kg/injection, schedule: Q01DX009 (ip), vehicle: saline): 0 of 10

CCCCCC(=O)c1ccc(OCCCN2CCN(C(=O)OCC)CC2)cc1
survivor count [5]: 8 of 10

COC(=O)c1cc([N+](=O)[O-])cc([N+](=O)[O-])c1Br
survivor count (dose: 3.0 mg/kg/injection, schedule: Q01DX009 (ip), vehicle: Klucel (hydroxypropylcellulose) (HPC)): 10 of 10 | survivor count [1]: 10 of 10 | survivor count (dose: 12.0 mg/kg/injection, schedule: Q01DX009 (ip), vehicle: Klucel (hydroxypropylcellulose) (HPC)): 10 of 10 | survivor count (dose: 12.5 mg/kg/injection, schedule: Q01DX009 (ip), vehicle: Klucel (hydroxypropylcellulose) (HPC)): 10 of 10 | survivor count [3]: 10 of 10 | survivor count (dose: 50.0 mg/kg/injection, schedule: Q01DX009 (ip), vehicle: Klucel (hydroxypropylcellulose) (HPC)): 10 of 10
